The list shows a part of the results.
compound: COc1ccc(Cn2ccc3cc(C)c(C(=O)NO)cc32)cc1; assay: dose-dependent thermal stabilisation call (2D-TPP, DLPTP, 10% FDR) (binary (1 = stabilised)); higher = stabilised by the compound; settings: system: HL-60 intact cells; concentration range 0.04-10 µM
Description: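 2D thermal proteome profiling in intact HL-60 cells treated with BRD-3811 (0, 0.04, 0.29, 2, 10 uM) for 90 min at 37 C, then heated 3 min at one of 12 temperatures (42-63.9 C). Soluble protein was quantified by TMT10 MS. The value is the DLPTP call of the paper: dose-dependent thermal stabilisation over all temperatures at 10% FDR (F-test of a dose-response against a flat model); one experiment, one call per tested protein.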

By UniProt entry, the sequences of proteins in these tests, tags left out. Where a name states a change or a piece, a line headed by the entry shows the natural chain unless it says otherwise.
UniProt Q9Y3L5: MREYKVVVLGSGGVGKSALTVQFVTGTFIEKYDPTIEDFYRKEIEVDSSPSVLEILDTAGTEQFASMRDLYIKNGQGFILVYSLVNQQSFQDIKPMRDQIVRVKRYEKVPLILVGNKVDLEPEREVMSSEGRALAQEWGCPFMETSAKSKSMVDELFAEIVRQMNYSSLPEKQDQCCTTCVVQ
UniProt Q5VTB9: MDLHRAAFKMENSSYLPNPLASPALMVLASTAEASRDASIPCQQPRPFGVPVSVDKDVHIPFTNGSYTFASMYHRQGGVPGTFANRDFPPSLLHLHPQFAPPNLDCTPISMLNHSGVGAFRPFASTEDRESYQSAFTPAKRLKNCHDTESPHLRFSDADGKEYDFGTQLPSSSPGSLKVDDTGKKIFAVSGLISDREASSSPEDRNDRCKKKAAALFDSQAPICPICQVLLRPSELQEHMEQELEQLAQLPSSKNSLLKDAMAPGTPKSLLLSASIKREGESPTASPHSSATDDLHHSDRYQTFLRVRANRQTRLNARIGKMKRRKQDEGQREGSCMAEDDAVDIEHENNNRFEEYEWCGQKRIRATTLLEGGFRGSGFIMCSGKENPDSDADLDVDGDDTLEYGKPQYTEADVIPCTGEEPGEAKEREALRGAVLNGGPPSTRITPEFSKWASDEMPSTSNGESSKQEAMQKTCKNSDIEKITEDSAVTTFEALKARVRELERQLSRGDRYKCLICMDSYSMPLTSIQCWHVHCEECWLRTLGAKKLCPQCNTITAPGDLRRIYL
UniProt Q8IXT5: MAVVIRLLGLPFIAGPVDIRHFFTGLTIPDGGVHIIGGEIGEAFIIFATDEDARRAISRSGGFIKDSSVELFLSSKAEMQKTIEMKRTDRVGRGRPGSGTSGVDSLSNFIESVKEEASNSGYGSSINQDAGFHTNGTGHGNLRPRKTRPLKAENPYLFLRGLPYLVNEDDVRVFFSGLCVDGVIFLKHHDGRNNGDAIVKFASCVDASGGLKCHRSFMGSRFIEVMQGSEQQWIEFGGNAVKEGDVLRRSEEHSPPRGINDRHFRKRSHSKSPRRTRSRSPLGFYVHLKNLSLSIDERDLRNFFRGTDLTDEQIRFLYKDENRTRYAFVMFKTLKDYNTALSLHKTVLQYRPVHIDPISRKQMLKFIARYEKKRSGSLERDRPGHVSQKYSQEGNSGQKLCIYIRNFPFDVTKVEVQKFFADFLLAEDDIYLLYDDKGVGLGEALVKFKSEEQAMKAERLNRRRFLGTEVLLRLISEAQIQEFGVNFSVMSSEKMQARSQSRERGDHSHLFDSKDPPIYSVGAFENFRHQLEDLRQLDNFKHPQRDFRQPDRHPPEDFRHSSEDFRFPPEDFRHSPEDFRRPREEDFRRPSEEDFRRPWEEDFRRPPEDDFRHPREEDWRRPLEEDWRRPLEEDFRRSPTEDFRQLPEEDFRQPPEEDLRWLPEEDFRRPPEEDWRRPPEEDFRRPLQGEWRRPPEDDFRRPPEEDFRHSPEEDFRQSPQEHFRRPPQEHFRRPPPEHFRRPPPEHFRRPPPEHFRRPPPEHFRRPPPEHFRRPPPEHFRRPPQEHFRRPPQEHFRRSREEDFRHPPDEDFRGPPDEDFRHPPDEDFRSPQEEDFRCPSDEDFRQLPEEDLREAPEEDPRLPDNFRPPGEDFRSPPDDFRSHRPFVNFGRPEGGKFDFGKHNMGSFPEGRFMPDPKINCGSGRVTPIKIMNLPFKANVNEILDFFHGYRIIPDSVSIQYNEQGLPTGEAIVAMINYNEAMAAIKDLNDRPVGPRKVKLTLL
UniProt Q7Z7A4: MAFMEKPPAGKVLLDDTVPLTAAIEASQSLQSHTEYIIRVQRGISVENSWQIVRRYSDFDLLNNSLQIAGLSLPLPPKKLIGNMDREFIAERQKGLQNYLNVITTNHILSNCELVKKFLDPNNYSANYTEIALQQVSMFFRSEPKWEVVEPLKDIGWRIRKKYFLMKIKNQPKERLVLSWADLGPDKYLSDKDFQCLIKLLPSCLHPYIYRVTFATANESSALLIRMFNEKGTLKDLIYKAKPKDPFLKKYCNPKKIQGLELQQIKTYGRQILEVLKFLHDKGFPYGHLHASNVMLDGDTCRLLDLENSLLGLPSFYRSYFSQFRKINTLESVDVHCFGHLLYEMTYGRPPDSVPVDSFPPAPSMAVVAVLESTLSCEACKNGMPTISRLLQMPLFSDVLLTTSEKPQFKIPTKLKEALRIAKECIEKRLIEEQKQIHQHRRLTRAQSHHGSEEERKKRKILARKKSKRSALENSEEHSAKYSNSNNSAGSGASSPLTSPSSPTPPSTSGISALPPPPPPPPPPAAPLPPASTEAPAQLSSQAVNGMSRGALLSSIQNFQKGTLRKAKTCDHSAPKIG
UniProt Q8TEU7: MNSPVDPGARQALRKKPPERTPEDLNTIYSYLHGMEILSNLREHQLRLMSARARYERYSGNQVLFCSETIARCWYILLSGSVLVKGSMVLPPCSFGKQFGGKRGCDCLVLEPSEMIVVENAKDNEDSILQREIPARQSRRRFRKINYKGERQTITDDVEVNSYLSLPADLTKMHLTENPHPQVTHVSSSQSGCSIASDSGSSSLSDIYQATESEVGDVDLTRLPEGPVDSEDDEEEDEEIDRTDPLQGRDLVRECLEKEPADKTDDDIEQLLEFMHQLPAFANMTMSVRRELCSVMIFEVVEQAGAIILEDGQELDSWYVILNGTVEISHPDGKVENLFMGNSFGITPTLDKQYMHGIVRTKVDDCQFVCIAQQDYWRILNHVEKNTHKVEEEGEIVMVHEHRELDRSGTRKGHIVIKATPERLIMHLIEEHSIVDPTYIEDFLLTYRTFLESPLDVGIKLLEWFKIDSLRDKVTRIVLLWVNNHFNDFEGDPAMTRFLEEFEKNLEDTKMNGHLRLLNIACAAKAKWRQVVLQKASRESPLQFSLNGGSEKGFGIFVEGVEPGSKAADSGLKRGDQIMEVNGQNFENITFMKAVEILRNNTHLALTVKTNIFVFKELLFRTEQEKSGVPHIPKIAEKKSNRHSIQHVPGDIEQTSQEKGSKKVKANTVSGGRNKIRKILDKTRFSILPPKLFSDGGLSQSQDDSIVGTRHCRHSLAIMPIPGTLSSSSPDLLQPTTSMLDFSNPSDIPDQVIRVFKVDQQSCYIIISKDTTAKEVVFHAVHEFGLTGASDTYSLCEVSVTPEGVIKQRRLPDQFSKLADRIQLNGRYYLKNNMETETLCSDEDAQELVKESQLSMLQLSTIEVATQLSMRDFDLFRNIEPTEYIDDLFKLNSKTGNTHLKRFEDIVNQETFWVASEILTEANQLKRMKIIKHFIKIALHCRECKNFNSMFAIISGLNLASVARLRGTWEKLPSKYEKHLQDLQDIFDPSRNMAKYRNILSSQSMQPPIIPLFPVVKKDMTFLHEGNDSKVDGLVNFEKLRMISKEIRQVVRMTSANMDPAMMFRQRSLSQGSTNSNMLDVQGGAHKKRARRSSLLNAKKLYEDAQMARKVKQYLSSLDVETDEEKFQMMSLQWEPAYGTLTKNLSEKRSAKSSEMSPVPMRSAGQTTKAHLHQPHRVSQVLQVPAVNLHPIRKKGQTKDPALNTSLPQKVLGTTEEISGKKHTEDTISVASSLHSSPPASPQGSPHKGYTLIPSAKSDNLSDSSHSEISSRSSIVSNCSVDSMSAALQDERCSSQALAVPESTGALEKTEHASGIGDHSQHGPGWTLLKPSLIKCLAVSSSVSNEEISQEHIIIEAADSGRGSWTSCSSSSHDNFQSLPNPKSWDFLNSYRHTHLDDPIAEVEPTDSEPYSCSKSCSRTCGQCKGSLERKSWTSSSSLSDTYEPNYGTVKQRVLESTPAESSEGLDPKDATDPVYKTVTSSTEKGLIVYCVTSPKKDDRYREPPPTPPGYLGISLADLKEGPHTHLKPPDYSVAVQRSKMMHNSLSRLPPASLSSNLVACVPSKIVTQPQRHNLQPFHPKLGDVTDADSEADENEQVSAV
UniProt Q92696: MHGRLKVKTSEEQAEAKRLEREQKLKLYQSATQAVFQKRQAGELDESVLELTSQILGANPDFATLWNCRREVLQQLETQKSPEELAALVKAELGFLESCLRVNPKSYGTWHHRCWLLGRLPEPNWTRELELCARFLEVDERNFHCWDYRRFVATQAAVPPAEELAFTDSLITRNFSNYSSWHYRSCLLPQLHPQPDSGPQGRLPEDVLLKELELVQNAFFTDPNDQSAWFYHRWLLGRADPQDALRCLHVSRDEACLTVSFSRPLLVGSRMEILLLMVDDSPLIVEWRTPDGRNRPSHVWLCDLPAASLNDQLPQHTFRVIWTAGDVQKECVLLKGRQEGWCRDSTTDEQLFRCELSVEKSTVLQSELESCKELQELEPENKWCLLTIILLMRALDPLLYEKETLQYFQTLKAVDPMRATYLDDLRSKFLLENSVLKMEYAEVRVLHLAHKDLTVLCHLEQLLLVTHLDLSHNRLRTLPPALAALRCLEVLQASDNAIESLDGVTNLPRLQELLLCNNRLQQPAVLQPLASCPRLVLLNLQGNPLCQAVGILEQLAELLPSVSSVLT
UniProt Q12913: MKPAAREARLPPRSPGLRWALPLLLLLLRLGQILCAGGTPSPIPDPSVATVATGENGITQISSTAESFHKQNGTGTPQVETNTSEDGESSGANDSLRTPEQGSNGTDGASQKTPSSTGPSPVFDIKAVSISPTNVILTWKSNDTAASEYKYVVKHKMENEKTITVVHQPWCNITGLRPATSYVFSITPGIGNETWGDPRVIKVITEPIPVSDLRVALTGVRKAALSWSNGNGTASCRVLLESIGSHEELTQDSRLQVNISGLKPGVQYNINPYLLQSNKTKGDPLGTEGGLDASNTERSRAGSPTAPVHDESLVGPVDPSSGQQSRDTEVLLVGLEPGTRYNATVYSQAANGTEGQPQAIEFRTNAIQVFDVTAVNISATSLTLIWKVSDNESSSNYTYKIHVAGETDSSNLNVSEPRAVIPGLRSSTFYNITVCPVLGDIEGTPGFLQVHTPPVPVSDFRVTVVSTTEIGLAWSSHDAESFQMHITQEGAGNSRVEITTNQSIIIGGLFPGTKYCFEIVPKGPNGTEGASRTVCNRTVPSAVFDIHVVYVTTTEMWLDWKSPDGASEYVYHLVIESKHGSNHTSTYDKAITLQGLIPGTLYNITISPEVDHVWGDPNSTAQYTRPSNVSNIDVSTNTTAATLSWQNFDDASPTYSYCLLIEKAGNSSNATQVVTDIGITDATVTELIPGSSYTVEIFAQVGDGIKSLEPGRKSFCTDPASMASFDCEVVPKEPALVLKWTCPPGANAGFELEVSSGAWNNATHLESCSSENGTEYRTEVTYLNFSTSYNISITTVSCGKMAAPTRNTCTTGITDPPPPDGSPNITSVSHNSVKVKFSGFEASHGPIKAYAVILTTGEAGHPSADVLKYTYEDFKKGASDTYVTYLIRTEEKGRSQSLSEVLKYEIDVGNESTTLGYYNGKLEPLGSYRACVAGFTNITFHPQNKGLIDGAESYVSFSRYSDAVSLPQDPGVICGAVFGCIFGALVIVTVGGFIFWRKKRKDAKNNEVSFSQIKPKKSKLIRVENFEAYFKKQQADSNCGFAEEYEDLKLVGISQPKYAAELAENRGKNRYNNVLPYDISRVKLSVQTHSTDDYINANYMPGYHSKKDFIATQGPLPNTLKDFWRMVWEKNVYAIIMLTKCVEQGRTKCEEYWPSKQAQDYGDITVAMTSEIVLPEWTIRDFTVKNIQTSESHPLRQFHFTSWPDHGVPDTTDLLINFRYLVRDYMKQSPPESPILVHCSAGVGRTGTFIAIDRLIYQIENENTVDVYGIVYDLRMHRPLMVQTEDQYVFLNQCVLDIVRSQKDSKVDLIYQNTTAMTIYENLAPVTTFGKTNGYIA

Row | Target | dose-dependent thermal stabilisation call
1 | RAP2C (UniProt Q9Y3L5) | inactive: 0
2 | RABGAP1L | inactive: 0
3 | RNF220 (UniProt Q5VTB9) | inactive: 0
4 | RBM12B (UniProt Q8IXT5) | inactive: 0
5 | RNF167 (UniProt Q9H6Y7) | inactive: 0
6 | PXK (UniProt Q7Z7A4) | inactive: 0
7 | RAPGEF6 (UniProt Q8TEU7) | inactive: 0
8 | RABGGTA (UniProt Q92696) | inactive: 0
9 | PTPRJ (UniProt Q12913) | inactive: 0

Reference: the supplement of paper PMC7666118
